The data set can be described thus: Taste difference from control test, sensory panel. Conditions: 0.44% weight/weight in water, panel of 7 individuals; for Numerical Results (Average), difference from control: 5 point scale for difference from glucosamine hydrochloride control; for Taste Results: compared with glucosamine hydrochloride control. The arrangement: key to Numerical Results (Average), difference from control: 0=no difference; 1=trace; 2=slight; 3=moderate; 4=strong; 5=very strong.

`N[C@H]1C(O)O[C@H](CO)[C@@H](O)[C@@H]1O.O=C(O)CC(O)(CC(=O)O)C(=O)O` [1G:3C, glucosamine citrate]: where the note is “citrate”, the “Numerical Results (Average), difference from control” value came to 5 and the “Taste Results” value is on record as “Very strong ++sour, very strong”.

Turning to `N[C@H]1C(O)O[C@H](CO)[C@@H](O)[C@@H]1O.O=C(O)CC(O)(CC(=O)O)C(=O)O` [1G:2C, glucosamine citrate], where the note is “citrate”, the “Numerical Results (Average), difference from control” value is on record as 5 and the “Taste Results” value is “Very strong sour, strong astringent”.

As for `Cl.N[C@H]1C(O)O[C@H](CO)[C@@H](O)[C@@H]1O` (some centres unmarked) [Blind Control, glucosamine hydrochloride, reference compound], the “Numerical Results (Average), difference from control” value was determined as 1 and the “Taste Results” value is given as “Trace sweet, bitter”.

In the case of `N[C@H]1C(O)O[C@H](CO)[C@@H](O)[C@@H]1O.O=C(O)CC(O)(CC(=O)O)C(=O)O` [1G:1C, glucosamine citrate], under “citrate”, the “Numerical Results (Average), difference from control” value amounted to 4 and the “Taste Results” value was “Strong sour, slight astringent”.

(Values after patent publication US20050148545A1, “Glucosamine organic acid adducts” (priority 2001, published 2005).)
